According to doi:10.1101/2022.07.11.499617:
Read-outs that look alike come from different tables or passages of the source. Results are given in words; binding and its absence hold for the method and conditions named. For some of these results: Binding seen in cells or lysates may run through a third protein. Some entries that bind do so weakly or less than the wild type. Where a sequence is shown, tags or fusion partners need not be part of it. Blank lines part the entries; values can stand above or below the binder they belong to.

Assays:
[1] = target: T1, MBP-BAK1_CD (Arabidopsis thaliana) (UniProt Q94F62); assay: pull-down
T1 sequence: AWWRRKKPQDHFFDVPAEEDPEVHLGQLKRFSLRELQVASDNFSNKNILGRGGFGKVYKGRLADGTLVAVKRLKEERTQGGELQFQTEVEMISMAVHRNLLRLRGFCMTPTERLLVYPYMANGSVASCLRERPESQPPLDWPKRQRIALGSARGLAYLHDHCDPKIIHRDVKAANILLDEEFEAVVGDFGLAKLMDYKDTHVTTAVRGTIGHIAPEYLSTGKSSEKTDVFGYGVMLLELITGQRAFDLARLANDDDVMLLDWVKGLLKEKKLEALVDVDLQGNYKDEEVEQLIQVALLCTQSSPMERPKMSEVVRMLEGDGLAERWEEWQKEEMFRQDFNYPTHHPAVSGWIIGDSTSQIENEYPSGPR

[2] = target: BR-… KINASE1 (BSK1), two-hybrid fusion (Arabidopsis thaliana) (UniProt Q944A7); assay: two-hybrid
[3] = target: BR-… KINASE2 (BSK2), two-hybrid fusion (Arabidopsis thaliana) (UniProt Q9LS26); assay: two-hybrid
[4] = target: T2, YODA (YDA), two-hybrid fusion (Arabidopsis thaliana) (UniProt Q9CAD5); assay: two-hybrid
T2 sequence: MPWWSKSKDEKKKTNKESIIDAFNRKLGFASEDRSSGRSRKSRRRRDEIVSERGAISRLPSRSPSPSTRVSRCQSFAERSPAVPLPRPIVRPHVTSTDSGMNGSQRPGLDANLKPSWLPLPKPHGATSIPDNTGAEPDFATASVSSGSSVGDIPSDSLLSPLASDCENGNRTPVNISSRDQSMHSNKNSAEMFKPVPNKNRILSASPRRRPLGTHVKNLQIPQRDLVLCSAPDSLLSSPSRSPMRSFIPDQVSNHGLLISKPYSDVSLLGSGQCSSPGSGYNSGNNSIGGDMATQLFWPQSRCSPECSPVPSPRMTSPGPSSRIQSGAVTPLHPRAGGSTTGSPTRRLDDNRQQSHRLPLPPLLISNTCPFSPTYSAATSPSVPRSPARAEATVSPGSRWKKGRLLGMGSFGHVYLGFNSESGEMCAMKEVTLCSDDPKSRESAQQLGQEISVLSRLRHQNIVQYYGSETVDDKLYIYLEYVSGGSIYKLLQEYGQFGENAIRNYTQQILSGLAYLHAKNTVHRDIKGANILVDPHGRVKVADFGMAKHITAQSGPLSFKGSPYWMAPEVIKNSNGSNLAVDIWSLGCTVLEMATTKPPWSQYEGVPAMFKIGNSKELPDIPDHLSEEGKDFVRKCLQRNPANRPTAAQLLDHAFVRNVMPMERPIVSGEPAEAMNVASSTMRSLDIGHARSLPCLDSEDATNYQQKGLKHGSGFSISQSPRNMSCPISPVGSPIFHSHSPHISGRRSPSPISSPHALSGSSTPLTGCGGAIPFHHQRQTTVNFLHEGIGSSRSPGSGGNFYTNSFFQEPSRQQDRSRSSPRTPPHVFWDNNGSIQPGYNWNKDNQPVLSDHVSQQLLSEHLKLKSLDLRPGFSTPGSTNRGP

[5] = target: T3, PUB30-FLAG (proPUB30::PUB30-FLAG) (Arabidopsis thaliana) (UniProt Q058P4); assay: co-IP
T3 sequence: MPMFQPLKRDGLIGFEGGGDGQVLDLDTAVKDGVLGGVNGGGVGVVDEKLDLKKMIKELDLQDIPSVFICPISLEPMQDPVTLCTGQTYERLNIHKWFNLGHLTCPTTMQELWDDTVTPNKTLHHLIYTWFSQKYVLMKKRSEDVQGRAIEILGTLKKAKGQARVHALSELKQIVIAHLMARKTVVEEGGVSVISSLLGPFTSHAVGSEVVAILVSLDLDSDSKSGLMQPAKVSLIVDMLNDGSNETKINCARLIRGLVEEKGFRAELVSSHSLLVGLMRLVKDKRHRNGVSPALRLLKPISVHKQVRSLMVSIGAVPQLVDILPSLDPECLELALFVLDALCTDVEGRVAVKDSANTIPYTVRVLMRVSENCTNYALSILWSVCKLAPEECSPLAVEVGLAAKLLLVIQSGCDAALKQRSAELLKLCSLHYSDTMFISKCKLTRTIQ

[6] = target: T4, PUB31-FLAG (proPUB31::PUB31-FLAG) (Arabidopsis thaliana) (UniProt Q9FHN9); assay: co-IP
T4 sequence: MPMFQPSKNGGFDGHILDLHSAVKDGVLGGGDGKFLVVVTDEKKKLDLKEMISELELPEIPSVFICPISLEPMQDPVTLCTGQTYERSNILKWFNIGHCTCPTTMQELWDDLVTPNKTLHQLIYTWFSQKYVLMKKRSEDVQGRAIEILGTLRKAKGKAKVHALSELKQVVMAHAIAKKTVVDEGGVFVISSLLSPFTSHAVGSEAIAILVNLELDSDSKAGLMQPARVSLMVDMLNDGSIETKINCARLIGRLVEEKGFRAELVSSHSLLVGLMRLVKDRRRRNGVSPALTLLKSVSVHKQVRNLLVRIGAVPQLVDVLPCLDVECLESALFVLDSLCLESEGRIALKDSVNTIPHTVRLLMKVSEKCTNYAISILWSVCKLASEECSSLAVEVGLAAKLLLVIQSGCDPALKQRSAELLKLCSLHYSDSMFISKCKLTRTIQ

[7] = target: T3, PUB30-FLAG (proPUB30::PUB30-FLAG) (Arabidopsis thaliana); assay: co-IP; remark: listed apart in the source
[8] = target: T4, PUB31-FLAG (proPUB31::PUB31-FLAG) (Arabidopsis thaliana); assay: co-IP; remark: listed apart in the source

- binding [1]: binds
B1: GST-PUB30 (enzyme, UniProt Q058P4 1-448)
chain: T3 sequence

- binding [2]: no binding
- binding [3]: no binding
- binding [4]: no binding
B2: PUB30, two-hybrid fusion used against BSK1/2 and YODA (enzyme, UniProt Q058P4 1-448)
chain: T3 sequence

- binding [1]: binds
B3: GST-PUB31 (enzyme, UniProt Q9FHN9 1-444)
chain: T4 sequence

- binding [5]: binds weakly
- binding [6]: binds weakly
- binding [7]: binds
- binding [8]: binds
B4: BRI1 ASSOCIATED KINASE1 (BAK1), endogenous (receptor, UniProt Q94F62 26-615)
chain: NAEGDALSALKNSLADPNKVLQSWDATLVTPCTWFHVTCNSDNSVTRVDLGNANLSGQLVMQLGQLPNLQYLELYSNNITGTIPEQLGNLTELVSLDLYLNNLSGPIPSTLGRLKKLRFLRLNNNSLSGEIPRSLTAVLTLQVLDLSNNPLTGDIPVNGSFSLFTPISFANTKLTPLPASPPPPISPTPPSPAGSNRITGAIAGGVAAGAALLFAVPAIALAWWRRKKPQDHFFDVPAEEDPEVHLGQLKRFSLRELQVASDNFSNKNILGRGGFGKVYKGRLADGTLVAVKRLKEERTQGGELQFQTEVEMISMAVHRNLLRLRGFCMTPTERLLVYPYMANGSVASCLRERPESQPPLDWPKRQRIALGSARGLAYLHDHCDPKIIHRDVKAANILLDEEFEAVVGDFGLAKLMDYKDTHVTTAVRGTIGHIAPEYLSTGKSSEKTDVFGYGVMLLELITGQRAFDLARLANDDDVMLLDWVKGLLKEKKLEALVDVDLQGNYKDEEVEQLIQVALLCTQSSPMERPKMSEVVRMLEGDGLAERWEEWQKEEMFRQDFNYPTHHPAVSGWIIGDSTSQIENEYPSGPR

- binding [5]: binds weakly
- binding [6]: binds weakly
- binding [7]: binds
- binding [8]: binds
B5: ERECTA-YFP (proERECTA::ERECTA-YFP) (receptor, UniProt Q42371 25-976)
chain: EEGATLLEIKKSFKDVNNVLYDWTTSPSSDYCVWRGVSCENVTFNVVALNLSDLNLDGEISPAIGDLKSLLSIDLRGNRLSGQIPDEIGDCSSLQNLDLSFNELSGDIPFSISKLKQLEQLILKNNQLIGPIPSTLSQIPNLKILDLAQNKLSGEIPRLIYWNEVLQYLGLRGNNLVGNISPDLCQLTGLWYFDVRNNSLTGSIPETIGNCTAFQVLDLSYNQLTGEIPFDIGFLQVATLSLQGNQLSGKIPSVIGLMQALAVLDLSGNLLSGSIPPILGNLTFTEKLYLHSNKLTGSIPPELGNMSKLHYLELNDNHLTGHIPPELGKLTDLFDLNVANNDLEGPIPDHLSSCTNLNSLNVHGNKFSGTIPRAFQKLESMTYLNLSSNNIKGPIPVELSRIGNLDTLDLSNNKINGIIPSSLGDLEHLLKMNLSRNHITGVVPGDFGNLRSIMEIDLSNNDISGPIPEELNQLQNIILLRLENNNLTGNVGSLANCLSLTVLNVSHNNLVGDIPKNNNFSRFSPDSFIGNPGLCGSWLNSPCHDSRRTVRVSISRAAILGIAIGGLVILLMVLIAACRPHNPPPFLDGSLDKPVTYSTPKLVILHMNMALHVYEDIMRMTENLSEKYIIGHGASSTVYKCVLKNCKPVAIKRLYSHNPQSMKQFETELEMLSSIKHRNLVSLQAYSLSHLGSLLFYDYLENGSLWDLLHGPTKKKTLDWDTRLKIAYGAAQGLAYLHHDCSPRIIHRDVKSSNILLDKDLEARLTDFGIAKSLCVSKSHTSTYVMGTIGYIDPEYARTSRLTEKSDVYSYGIVLLELLTRRKAVDDESNLHHLIMSKTGNNEVMEMADPDITSTCKDLGVVKKVFQLALLCTKRQPNDRPTMHQVTRVLGSFMLSEQPPAATDTSATLAGSCYVDEYANLKTPHSVNCSSMSASDAQLFLRFGQVISQNSE
